Measurements: PubChem BioAssay AID2685 (National Center for Advancing Translational Sciences (NCATS), 2010)
The list shows a part of the results. Shown are side measurements of this screen, not its main read-out; they come without a call. Most of these compounds were active or inconclusive in the main read-out, so they are no random draw. Words in brackets tell the shape of the fitted curve; partial curves, single points and poor fits give uncertain potencies.

Assay: qHTS Assay for Lipid Storage Modulators in Drosophila S3 Cells;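 on cell number change: cells counted by Cell Tracker Red CMTPX staining in the red channel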
Conditions: BODIPY lipid droplet fluorescence, 18-24 h; for cell number change: measured here: cell count max response, cells fed with added oleic acid
Method in brief: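 Laser-scanning cytometry quantifies lipid droplet accumulation (500–530 nm total intensity; droplet/cell object ratio) in oleic acid-fed (400 uM added) Drosophila S3 cells treated with a concentration series. 20 uM Triacsin C defined 100% inhibition.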

[1] = measured here: cell number channel AC50, cells fed with added oleic acid
[2] = measured here: lipid fluorescence (Fed channel) AC50, cells fed with added oleic acid

Row | Compound | cell number change [%] | AC50 [1] | AC50 [2]
1 | O=C(NCc1ccccc1)OCCN1CCN(Cc2ccccc2)CCC1=O | -35.6 | 16.4 µM [falling, single point] | 18.4 µM [falling, partial curve]
2 | Cn1c(NCc2ccccc2)nc2c1c(=O)n(Cc1ccccc1)c(=O)n2C |  |  | 2.91 µM [rising, partial curve]
3 | COc1ccc(OCC(=O)NCCC2=CCCCC2)c([N+](=O)[O-])c1 | 35.7 | 25.9 µM [rising, single point] | 
4 | N#Cc1ccccc1S(=O)(=O)N1CCN(CC(O)c2ccccc2)CC1 (stereo unspecified) | -8.65 |  | 0.651 µM [falling, full curve, poor fit]
5 | CC(=O)Nc1ccc2c(c1)nc(CN1CCCC1)n2C | 30.1 |  | 
6 | CC1CCN(CC(=O)Nc2ccccc2Sc2ccccc2)CC1 | -36.4 | 32.6 µM [falling, single point] | 16.4 µM [falling, partial curve, poor fit]
7 | CC1CC1c1ccc(/C=C(\C#N)C(=O)Nc2cc(Cl)ccc2Cl)o1 (stereo unspecified) | 3.47 |  | 0.00461 µM [rising, full curve, poor fit]
8 | COc1cccc(NC(=O)NCc2c(-c3ccccc3)noc2C)c1 | -38 | 29.1 µM [falling, single point] | 32.6 µM [falling, single point]
9 | CSc1ccc(S(=O)(=O)NCC(=O)OC(C)C(=O)NCc2ccccc2)cc1[N+](=O)[O-] (stereo unspecified) | -17 |  | 29.1 µM [falling, single point]
10 | O=C(NNC(=O)c1cccs1)c1ccc(F)cc1 | 1.25 |  | 
11 | O=C(C1CCCO1)N1CCN(c2c3c(nc4cc(-c5ccc(F)cc5)nn24)CCC3)CC1 (stereo unspecified) | 10.6 |  | 4.11 µM [rising, single point]
12 | O=C(CN(C(=O)CCC(=O)Nc1nccs1)c1cccc(F)c1)NCCc1ccccc1 | 235 | 29.1 µM [rising, single point] | 
13 | CC(=O)Nc1ccc(S(=O)(=O)n2cnc3cc(C)c(C)cc32)cc1 | -36.8 | 16.4 µM [falling, single point] | 
14 | NC(=O)C1CCN(C(=O)COc2ccc3c4c(c(=O)oc3c2)CCCC4)CC1 | 22 |  | 4.61 µM [rising, full curve]
15 | O=C(CNc1cc(S(=O)(=O)N2CCOCC2)ccc1N1CCCC1)NCc1ccco1 | 5.68 |  | 
16 | Cc1ccccc1NC(=O)CSc1nnnn1C | 15.8 |  | 2.06 µM [rising, full curve]
17 | Cc1ccc(N=Nc2c(=O)[nH]n3c(=O)cc(C)[nH]c23)cc1 | 27.6 |  | 29.1 µM [rising, single point]
18 | O=C(NCc1ccco1)C1CCN(C(=O)c2cc3sccc3n2Cc2ccc(Cl)cc2)CC1 | -56.9 | 29.1 µM [falling, single point] | 16.4 µM [falling, partial curve]
19 | COc1cnc(SCc2c(Cl)cccc2Cl)nc1Cl | 28.2 |  | 32.6 µM [falling, single point]
20 | COCCn1nnnc1C(c1ccc(OC)cc1)N1CCC(C)CC1 (stereo unspecified) | 18.2 |  | 

3 compounds from above, limited to cell number change [%].
Row,Compound,cell number change [%]
6,CC1CCN(CC(=O)Nc2ccccc2Sc2ccccc2)CC1,-36.4
7,CC1CC1c1ccc(/C=C(\C#N)C(=O)Nc2cc(Cl)ccc2Cl)o1 (stereo unspecified),3.47
8,COc1cccc(NC(=O)NCc2c(-c3ccccc3)noc2C)c1,-38

(continued)

Row | Compound | cell number change [%] | AC50 [1] | AC50 [2]
21 | O=C(O)c1cccc(S(=O)(=O)N2CCN(S(=O)(=O)c3ccc4ccccc4c3)CC2)c1 | -14 |  | 
22 | NNC(=O)c1ccc(OCC2CC(c3ccc(Cl)cc3)=NO2)cc1 (stereo unspecified) | 6.93 |  | 
23 | O=C(/C=C/NCc1cccnc1)C(F)(F)C(F)(F)F | 29.5 | 6.51 µM [rising, partial curve, poor fit] | 6.51 µM [rising, partial curve, poor fit]
24 | CC1=Nn2c(nnc2-c2ccccc2F)SC1 | 0.0661 |  | 0.651 µM [falling, full curve, poor fit]
25 | Cn1c(=O)c2c(SCC(=O)NCCc3ccccc3)nc(C3CC3)nc2n(C)c1=O | 16.3 | 0.00651 µM [rising, full curve, poor fit] | 
26 | CCc1cccc(OCCn2nc(C(=O)O)c3ccccc3c2=O)c1 | 12.7 |  | 
27 | O=C(C1CCCN1S(=O)(=O)c1ccc(Br)cc1)N1CCOCC1 (stereo unspecified) | 30.6 | 29.1 µM [rising, single point] | 29.1 µM [rising, single point]
28 | CC(C(=O)N1CCN(C)CC1)N1C(=O)c2ccccc2C1=O (stereo unspecified) | -23.6 | 2.31 µM [falling, full curve, poor fit] | 9.2 µM [falling, partial curve]
29 | CC(=O)c1ccc(N2C(=O)C3C4C=CC(CC4)C3C2=O)cc1 (stereo unspecified) | 10.8 |  | 
30 | CN(c1ccc(C(=O)Nc2ccc(Cl)cn2)cc1)S(=O)(=O)c1ccccc1 | -1.54 |  | 0.651 µM [falling, full curve, poor fit]
31 | c1ccc(C2=Nn3c(nnc3-c3cc(-c4ccccc4)n[nH]3)SC2)cc1 | -30.6 | 32.6 µM [falling, single point] | 
32 | Cc1csc(=O)n1CC(=O)OCC(=O)NCc1ccc(F)cc1 | 4.58 |  | 
33 | COc1ccccc1NC(=O)CNS(=O)(=O)c1ccccc1 |  | 2.91 µM [rising, partial curve] | 0.58 µM [falling, single point]
34 | O=C(O)c1ccccc1C(=O)Nc1ccc(Br)c2cccnc12 | 109 | 23.1 µM [rising, single point] | 29.1 µM [rising, single point]
35 | Cc1nn(CCC(=O)NNC(=S)Nc2ccc(F)cc2)c(C)c1Br |  |  | 1.84 µM [rising, partial curve]
36 | COc1ccc(C)cc1NC(=O)c1ccc(CN2CCN(c3ccccc3)CC2)cc1 | 7.89 |  | 
37 | Cc1ccc(OCc2nc3c4c(ncn3n2)-c2ccccc2CC42CCCC2)cc1 | -7.57 |  | 13 µM [rising, partial curve]
38 | O=C(O)c1ccccc1Sc1c([N+](=O)[O-])cc(C(F)(F)F)cc1[N+](=O)[O-] | 3.1 |  | 
39 | Cc1cccc(NCc2nc3ccccc3n2C)c1 | 21.4 | 0.082 µM [rising, full curve, poor fit] | 
40 | CN(C)CCNC(=O)/C=C/c1cn(-c2ccccc2)nc1-c1cc2ccccc2oc1=O | 23 | 0.461 µM [rising, full curve, poor fit] | 0.461 µM [rising, full curve, poor fit]
